These results are taken from article PMC8677339.

No constants are given. Whether binding was seen depends on the method and setting. In cells and extracts the contact can be indirect. Binding can be weak; no strength is given.

The target in the test is ZO-1 (bovine (endogenous in primary bovine retinal endothelial cells)). Kind of test: co-IP; co-immunoprecipitation of endogenous protein in primary bovine retinal endothelial cells (BREC); interaction most abundant with VEGF/norrin co-stimulation.

B1: disheveled-1 (Dvl1) (protein, UniProt F1N6M9 1-647)
chain: MPSCPASTAVWSPGWFWLRVLTRMQGLRALMDTQTCPRLLSGQVASGTPGLPPSTRMWPAAAMGWITRLARSHWSATGGSEPDAGTVKRGIPWPGPVPAVPTAARTNGHPRGDRRRDLGLPPDSASTVLSSELESSSFIDSDEDDNTSRLSSSTEQSTSSRLIRKHKRRRRKQRLRQTDRASSFSSITDSTMSLNIITVTLNMERHHFLGISIVGQSNDRGDGGIYIGSIMKGGAVAADGRIEPGDMLLQVNDVNFENMSNDDAVRVLREIVSQTGPISLTVAKCWDPTPRSYFTIPRADPVRPIDPAAWLSHTAALTGALPRYGTSPCSSAVTRTSSSSLTSSVPGAPQLEEAPLTVKSDMGAVVRVMQLPDSGLEIRDRMWLKITIANAVIGADVVDWLYAHLEGFRERREARKYASSMLKRGFLRHTVNKVTFSEQCYYVFGDLCSNLAALNLNSGSSGASDQDTLAPLPHPAAPWPLGQGYPYQYPGPPPCFPPAYQDPGFGYGSGSAGSQQSEGSKSSGSTRSAGGSSRRALGREKESRSAGAGGSGSESDHTVPSGAGGSGWRERPPSQLSRGSSPRSQASAAAPGLPPLHPLTKAYSVVGGPPGGPPVRELAAVPPELTGSRQSFQKAMGNPCEFFVDIM
Regarding B1, the binding entry is “binds”.
